Reference: PubChem BioAssay AID1671195 (Yale University, 2021)

Assay: 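Regulators of LDL receptor activity judged by labelled LDL uptake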 (primary screen)
System: human Huh7 hepatoma cells
Knock-down reagent: siRNA pool against human genes, 18 nM
Time to read-out: about 2 to 2.5 days of knockdown, then 8 h LDL uptake
Conditions: DiI-labelled LDL at 30 µg/ml for 8 h, in lipoprotein-deficient serum medium
Detection: 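Per-cell DiI-LDL intensity by automated imaging; well means scaled to the plate median and given as a robust z-score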
Reading the numbers: robust z-score: higher = more LDL uptake after knockdown
Call rule: 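a gene counts as active if at least two replicate z-scores exceed ±2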
The whole screen tested about 22,000 reagents; below is an unselected part. Over the whole deposit, about 1,510 (6.9%) are marked active. 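Active includes knockdowns raising or lowering LDL uptake; positive z-scores mean more uptake, negative mean less.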 The numbers tell different reagents against one gene apart.

The first 9 records as a preview:
| target gene | reagent no. | robust z-score, replicate 1 | robust z-score, replicate 2 | robust z-score, replicate 3 | outcome |
| --- | --- | --- | --- | --- | --- |
| GPR39 (G protein-coupled receptor 39) | 1 | 0.565 | -0.0023 | 0.179 | inactive |
| SPART (spartin) | 1 | -0.703 | 0.312 | -0.224 | inactive |
| HES3 (hes family bHLH transcription factor 3) | 1 | 0.577 | 0.439 | 0.445 | inactive |
| EML6 (EMAP like 6) | 1 | 0.917 | 0.735 | 0.497 | inactive |
| FRMPD1 (FERM and PDZ domain containing 1) | 1 | 1.68 | -0.0987 | 1.26 | inactive |
| PPP2R5C (protein phosphatase 2 regulatory subunit B'gamma) | 1 | 0.702 | 1.04 | 0.406 | inactive |
| GPR62 (G protein-coupled receptor 62) | 1 | 0.265 | -1.01 | -0.14 | inactive |
| LOC440827 (retired record) | 1 | 0.33 | 0.672 | -0.208 | inactive |
| CACNA2D4 | 1 | -0.434 | -1.15 | -0.977 | inactive |

The list itself, from the first entry:
| target gene | reagent no. | robust z-score, replicate 1 | robust z-score, replicate 2 | robust z-score, replicate 3 | outcome |
| --- | --- | --- | --- | --- | --- |
| GPR39 (G protein-coupled receptor 39) | 1 | 0.565 | -0.0023 | 0.179 | inactive |
| SPART (spartin) | 1 | -0.703 | 0.312 | -0.224 | inactive |
| HES3 (hes family bHLH transcription factor 3) | 1 | 0.577 | 0.439 | 0.445 | inactive |
| EML6 (EMAP like 6) | 1 | 0.917 | 0.735 | 0.497 | inactive |
| FRMPD1 (FERM and PDZ domain containing 1) | 1 | 1.68 | -0.0987 | 1.26 | inactive |
| PPP2R5C (protein phosphatase 2 regulatory subunit B'gamma) | 1 | 0.702 | 1.04 | 0.406 | inactive |
| GPR62 (G protein-coupled receptor 62) | 1 | 0.265 | -1.01 | -0.14 | inactive |
| LOC440827 (retired record) | 1 | 0.33 | 0.672 | -0.208 | inactive |
| CACNA2D4 | 1 | -0.434 | -1.15 | -0.977 | inactive |
| LOC400861 (retired record) | 1 | 1.36 | 1.2 | 0.934 | inactive |
| IQGAP3 (IQ motif containing GTPase activating protein 3) | 1 | 0.343 | 0.813 | 0.813 | inactive |
| IFT80 (intraflagellar transport 80) | 1 | -0.641 | -0.759 | 1.49 | inactive |
| LOC387873 (retired record) | 1 | 1.71 | 0.967 | 1.39 | inactive |
| RAB25 (RAB25, member RAS oncogene family) | 1 | 0.402 | -0.0465 | 0.975 | inactive |
| PEX3 (peroxisomal biogenesis factor 3) | 1 | 2.96 | 2.12 | 3.43 | active |
| UTP18 (UTP18 small subunit processome component) | 1 | 0.376 | -0.122 | 0.915 | inactive |
| RPL31P43 (ribosomal protein L31 pseudogene 43) | 1 | 0.438 | 1.24 | 1.47 | inactive |
| PLS1 (plastin 1) | 1 | 0.386 | 1.3 | 0.386 | inactive |
| MARCHF9 (membrane associated ring-CH-type finger 9) | 1 | 0.747 | 1.09 | 0.00166 | inactive |
| CNTNAP3B (contactin associated protein family member 3B) | 1 | 2.51 | 1.89 | 2.62 | active |
| CNTNAP3B (contactin associated protein family member 3B) | 2 | 0.344 | 0.224 | 0.414 | inactive |
| CNTNAP3B (contactin associated protein family member 3B) | 3 | -1.01 | -0.93 | -0.852 | inactive |
| RCC2 (regulator of chromosome condensation 2) | 1 | 0.386 | 0.0641 | -1.2 | inactive |
| SELENOT (selenoprotein T) | 1 | 0.748 | 1.5 | 1.93 | inactive |
| RAP1B (RAP1B, member of RAS oncogene family) | 1 | 1.87 | 0.964 | 3.54 | inactive |
| RAB27A (RAB27A, member RAS oncogene family) | 1 | 1.41 | 0.762 | 0.845 | inactive |
| PXT1 (peroxisomal testis enriched protein 1) | 1 | -0.601 | -0.467 | -0.133 | inactive |
| TRIM68 (tripartite motif containing 68) | 1 | 4.96 | 1.9 | 3.21 | active |
| NSMAF (neutral sphingomyelinase activation associated factor) | 1 | -0.313 | -0.0295 | -1.17 | inactive |
| RPS28 (ribosomal protein S28) | 1 | -0.895 | -0.482 | -1.23 | inactive |
| TBL1X (transducin beta like 1 X-linked) | 1 | 3.79 | 3.28 | 4.16 | active |
| ZNF623 (zinc finger protein 623) | 1 | -2.65 | -2.58 | -1.65 | active |
| BAHD1 (bromo adjacent homology domain containing 1) | 1 | 0.605 | 1.1 | 0.421 | inactive |
| RNPS1 (RNA binding protein with serine rich domain 1) | 1 | -0.773 | 0.00245 | -0.437 | inactive |
| LARGE2 (LARGE xylosyl- and glucuronyltransferase 2) | 1 | 0.466 | 0.164 | -0.566 | inactive |
| SPDYE4 (speedy/RINGO cell cycle regulator family member E4) | 1 | 0.808 | 1.2 | 0.955 | inactive |
| MED22 (mediator complex subunit 22) | 1 | 0.552 | 0.398 | 0.901 | inactive |
| IFNAR2 (interferon alpha and beta receptor subunit 2) | 1 | -0.393 | -0.976 | -0.0403 | inactive |
| NLRP6 (NLR family pyrin domain containing 6) | 1 | 1.39 | 2.16 | 1.39 | inactive |
| SLC10A2 | 1 | -2.04 | -2.04 | -2.2 | active |
| ZNF552 (zinc finger protein 552) | 1 | 0.0632 | 0.149 | 0.0685 | inactive |
| PARP11 (poly(ADP-ribose) polymerase family member 11) | 1 | -0.296 | -0.81 | -0.586 | inactive |
| TMEM80 (transmembrane protein 80) | 1 | -1.42 | -1.53 | -1.54 | inactive |
| DAAM2 (dishevelled associated activator of morphogenesis 2) | 1 | -2.76 | -1.66 | -2.16 | active |
| ARHGAP18 (Rho GTPase activating protein 18) | 1 | 0.123 | 0.377 | 0.462 | inactive |
| COTL1 (coactosin like F-actin binding protein 1) | 1 | -0.38 | -0.358 | -0.175 | inactive |
| BRINP1 (BMP/retinoic acid inducible neural specific 1) | 1 | 0.895 | -1.33 | 0.302 | inactive |
| GSDME (gasdermin E) | 1 | -0.0897 | 0.429 | -1.25 | inactive |
| ALDH1L1 (aldehyde dehydrogenase 1 family member L1) | 1 | -1.38 | -1.64 | -1.48 | inactive |
| MLEC (malectin) | 1 | 1.46 | -0.147 | 0.2 | inactive |
| LOC441346 (retired record) | 1 | -0.404 | -0.769 | -0.775 | inactive |
| SOWAHC (sosondowah ankyrin repeat domain family member C) | 1 | 0.506 | 1.11 | 0.962 | inactive |
| NECAB1 (N-terminal EF-hand calcium binding protein 1) | 1 | -0.327 | -0.424 | -0.986 | inactive |
| LOC402463 (retired record) | 1 | 0.51 | -1.27 | -0.00798 | inactive |
| TNFRSF1B (TNF receptor superfamily member 1B) | 1 | -1.29 | -0.756 | -0.909 | inactive |
| HAUS1 (HAUS augmin like complex subunit 1) | 1 | 0.43 | 0.0205 | 0.0649 | inactive |
| IL18BP (interleukin 18 binding protein) | 1 | -0.414 | -0.571 | -0.822 | inactive |
| GAN (gigaxonin) | 1 | 0.825 | 1.16 | 1.72 | inactive |
| GCC1 (GRIP and coiled-coil domain containing 1) | 1 | 0.84 | 1.26 | 1.59 | inactive |
| ETF1 (eukaryotic translation termination factor 1) | 1 | 0.852 | 0.887 | 0.619 | inactive |
| KLHDC1 (kelch domain containing 1) | 1 | 1.46 | 1.3 | 0.959 | inactive |
| RAB3GAP1 (RAB3 GTPase activating protein catalytic subunit 1) | 1 | 0.341 | 1.58 | 1.23 | inactive |
| SERPINB1 (serpin family B member 1) | 1 | 1.5 | 0.954 | 1.09 | inactive |
| ACAA1 (acetyl-CoA acyltransferase 1) | 1 | -0.52 | -0.417 | -0.595 | inactive |
| BOLA1 (bolA family member 1) | 1 | 0.714 | -0.0991 | -1.37 | inactive |
| LOC440856 (retired record) | 1 | -1.74 | -0.857 | -0.349 | inactive |
| PLAC8 (placenta associated 8) | 1 | 2.23 | -0.283 | -0.607 | inactive |
| ARHGAP45 (Rho GTPase activating protein 45) | 1 | 0.644 | -1.46 | 0.728 | inactive |
| PXMP2 (peroxisomal membrane protein 2) | 1 | 0.846 | 0.499 | 0.617 | inactive |
| FBXO24 (F-box protein 24) | 1 | 0.408 | -0.0751 | 0.67 | inactive |
| UNC13B (unc-13 homolog B) | 1 | -0.792 | -0.886 | -0.367 | inactive |
| ANXA10 (annexin A10) | 1 | 0.574 | 0.346 | 0.216 | inactive |
| BEX1 (brain expressed X-linked 1) | 1 | 2.64 | 2.51 | -0.0924 | active |
| HBP1 (HMG-box transcription factor 1) | 1 | 0.112 | -1.54 | 0.434 | inactive |
| EIF2AK1 (eukaryotic translation initiation factor 2 alpha kinase 1) | 1 | -0.754 | -0.326 | 0.00405 | inactive |
| LOC400638 (retired record) | 1 | -0.523 | -1.02 | -0.955 | inactive |
| GLUD1 (glutamate dehydrogenase 1) | 1 | -0.963 | -1.01 | -1.14 | inactive |
| EFNB1 (ephrin B1) | 1 | -0.662 | 1.85 | 0.205 | inactive |
| GPATCH8 (G-patch domain containing 8) | 1 | -1.4 | -0.988 | -1.05 | inactive |
| ZNF680 (zinc finger protein 680) | 1 | -0.431 | -0.457 | -0.585 | inactive |
| MSLNL (mesothelin like) | 1 | -1.48 | -1.17 | -0.93 | inactive |
| TCEANC | 1 | -0.725 | -0.722 | -1.26 | inactive |
| CUX1 (cut like homeobox 1) | 1 | -1.47 | -1.03 | -1.81 | inactive |
| OR51M1 (olfactory receptor family 51 subfamily M member 1) | 1 | -0.794 | -0.67 | -0.933 | inactive |
| LBR (lamin B receptor) | 1 | 1.98 | 1.9 | 2.4 | active |
| KREMEN1 (kringle containing transmembrane protein 1) | 1 | 1.54 | 0.995 | 0.638 | inactive |
| FMC1 (formation of mitochondrial complex V assembly factor 1) | 1 | 0.273 | 0.14 | 0.688 | inactive |
